Source: paper PMC6904755
Results are given in words; binding and its absence hold for the method and conditions named. Binding calls can cover weak binding; strength is not graded here.

Assays:
[1] = target: T1, Drosophila Gemin3, full-length (wild type) (Drosophila) (UniProt Q9V3C4); experiment: two-hybrid; serial dilutions spotted on –Leu–Trp–His plates in the presence of 20 mM 3-AT (methods say 30 mM), 28 °C for 3 to 5 days
T1 sequence: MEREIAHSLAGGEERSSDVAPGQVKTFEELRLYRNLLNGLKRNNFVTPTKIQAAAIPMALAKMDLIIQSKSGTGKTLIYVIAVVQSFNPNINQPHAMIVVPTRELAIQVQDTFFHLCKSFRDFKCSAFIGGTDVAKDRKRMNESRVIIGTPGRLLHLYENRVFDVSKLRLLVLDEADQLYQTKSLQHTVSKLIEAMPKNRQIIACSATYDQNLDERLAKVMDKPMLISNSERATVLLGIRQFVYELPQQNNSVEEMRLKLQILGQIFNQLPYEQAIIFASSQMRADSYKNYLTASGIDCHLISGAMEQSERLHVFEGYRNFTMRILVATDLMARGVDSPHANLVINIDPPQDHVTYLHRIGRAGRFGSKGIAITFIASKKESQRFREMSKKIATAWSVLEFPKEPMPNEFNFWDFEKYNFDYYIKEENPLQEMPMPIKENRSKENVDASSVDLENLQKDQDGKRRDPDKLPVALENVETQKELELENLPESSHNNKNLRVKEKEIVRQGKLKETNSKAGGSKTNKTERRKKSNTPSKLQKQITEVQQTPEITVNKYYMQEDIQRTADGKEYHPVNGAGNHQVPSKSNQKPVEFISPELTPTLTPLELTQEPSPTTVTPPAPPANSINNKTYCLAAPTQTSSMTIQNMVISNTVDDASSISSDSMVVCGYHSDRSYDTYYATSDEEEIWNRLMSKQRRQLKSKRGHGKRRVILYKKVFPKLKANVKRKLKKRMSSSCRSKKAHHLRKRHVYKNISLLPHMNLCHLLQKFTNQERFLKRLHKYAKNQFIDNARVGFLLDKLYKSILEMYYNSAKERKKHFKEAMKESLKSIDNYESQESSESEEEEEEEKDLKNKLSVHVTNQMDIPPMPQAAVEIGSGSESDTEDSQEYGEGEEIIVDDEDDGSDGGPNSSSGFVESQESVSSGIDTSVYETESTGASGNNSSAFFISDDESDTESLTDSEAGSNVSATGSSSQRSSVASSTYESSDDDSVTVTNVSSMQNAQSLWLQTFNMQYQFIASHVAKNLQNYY

[2] = target: T1, Drosophila Gemin3, full-length (wild type) (Drosophila); experiment: two-hybrid; GAL4-BD baits (pASΔΔ, strain CG1945) mated with GAL4-AD preys (pACT2st, strain Y187); β-galactosidase activity of the GAL1-LacZ reporter measured from extracts of cells grown in –Trp–Leu medium

## Gem3^ΔN, helicase domain deletion mutant of Drosophila Gemin3 (domain or fragment)
[1]
  binding: binds
[2]
  binding: binds
